Measurements from the supplement of paper PMC8728848.
The list shows a part of the results.

How the values were obtained:
Test in all cases: glycan array binding signal (z-score within array); higher = stronger binding
Details in all cases: glycan notation: IUPAC condensed, linker removed
[1] = target: Fuc(a1-2)Gal(b1-4)GlcNAc(b1-3)Gal(b1-4)GlcNAc(b1-3)Gal(b1-4)GlcNAc
Summary of the method: (§1)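 The Consortium for Functional Glycomics database supplied 3228 glycan arrays, of which those lacking an available protein sequence were dropped. The binding signal, a within-array Z-score, was averaged across arrays of the same protein sequence and across linkers. Negative scores can be read as non-binding.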

[2] = target: Fuc(a1-2)Gal(b1-4)GlcNAc(b1-3)GalNAc
Summary of the method: as §1

[3] = target: Fuc(a1-2)Gal(b1-4)GlcNAc(b1-3)[Fuc(a1-2)Gal(b1-4)GlcNAc(b1-6)]GalNAc
Summary of the method: as §1

[4] = target: Fuc(a1-2)Gal(b1-4)GlcNAc(b1-3)[Fuc(a1-3)[Gal(b1-4)]GlcNAc(b1-6)]Gal(b1-4)Glc
Summary of the method: as §1

[5] = target: Fuc(a1-2)Gal(b1-4)GlcNAc(b1-6)GalNAc
Summary of the method: as §1

[6] = target: Fuc(a1-2)Gal(b1-4)GlcNAc6S
Summary of the method: as §1

[7] = target: Fuc(a1-2)Gal(b1-4)[Fuc(a1-3)]GlcNAc
Summary of the method: as §1

[8] = target: Fuc(a1-2)Gal(b1-4)[Fuc(a1-3)]GlcNAc(b1-2)Man(a1-3)[Fuc(a1-2)Gal(b1-4)[Fuc(a1-3)]GlcNAc(b1-2)Man(a1-6)]Man(b1-4)GlcNAc(b1-4)[Fuc(a1-6)]GlcNAc
Summary of the method: as §1

[9] = target: Fuc(a1-2)Gal(b1-4)[Fuc(a1-3)]GlcNAc(b1-2)[Fuc(a1-2)Gal(b1-4)[Fuc(a1-3)]GlcNAc(b1-4)]Man(a1-3)[Fuc(a1-2)Gal(b1-4)[Fuc(a1-3)]GlcNAc(b1-2)Man(a1-6)]Man(b1-4)GlcNAc(b1-4)GlcNAc
Summary of the method: as §1

[10] = target: Fuc(a1-2)Gal(b1-4)[Fuc(a1-3)]GlcNAc(b1-3)Gal(b1-4)[Fuc(a1-3)]GlcNAc
Summary of the method: as §1

[11] = target: Fuc(a1-2)Gal(b1-4)[Fuc(a1-3)]GlcNAc(b1-3)Gal(b1-4)[Fuc(a1-3)]GlcNAc(b1-3)Gal(b1-4)[Fuc(a1-3)]GlcNAc
Summary of the method: as §1

[12] = target: Fuc(a1-2)Gal(b1-4)[Fuc(a1-3)]GlcNAc(b1-3)GalNAc
Summary of the method: as §1

[13] = target: Fuc(a1-2)Gal(b1-4)[Fuc(a1-3)]GlcNAc(b1-3)[Neu5Ac(a2-6)Gal(b1-4)GlcNAc(b1-6)]Gal(b1-4)Glc
Summary of the method: as §1

[14] = target: Fuc(a1-2)Gal3S(b1-4)GlcNAc
Summary of the method: as §1

[15] = target: Fuc(a1-2)Gal6S(b1-3)GlcNAc
Summary of the method: as §1

[16] = target: Fuc(a1-2)Gal6S(b1-3)GlcNAc6S
Summary of the method: as §1

Fuc(a1-2)Gal6S(b1-4)Glc = target: Fuc(a1-2)Gal6S(b1-4)Glc
Summary of the method: as §1

[17] = target: Fuc(a1-2)Gal6S(b1-4)Glc6S
Summary of the method: as §1

Fuc(a1-2)[Gal(a1-3)]Gal = target: Fuc(a1-2)[Gal(a1-3)]Gal
Summary of the method: as §1

[18] = target: Fuc(a1-2)[Gal(a1-3)]Gal(b1-3)GalNAc
Summary of the method: as §1

[19] = target: Fuc(a1-2)[Gal(a1-3)]Gal(b1-3)GalNAc(b1-3)Gal(a1-4)Gal(b1-4)Glc
Summary of the method: as §1

[20] = target: Fuc(a1-2)[Gal(a1-3)]Gal(b1-3)GlcNAc
Summary of the method: as §1

[21] = target: Fuc(a1-2)[Gal(a1-3)]Gal(b1-3)GlcNAc(b1-2)Man(a1-3)[Fuc(a1-2)[Gal(a1-3)]Gal(b1-3)GlcNAc(b1-2)Man(a1-6)]Man(b1-4)GlcNAc(b1-4)GlcNAc
Summary of the method: as §1

[22] = target: Fuc(a1-2)[Gal(a1-3)]Gal(b1-3)GlcNAc(b1-2)Man(a1-3)[Fuc(a1-2)[Gal(a1-3)]Gal(b1-3)GlcNAc(b1-2)Man(a1-6)]Man(b1-4)GlcNAc(b1-4)[Fuc(a1-6)]GlcNAc
Summary of the method: as §1

[23] = target: Fuc(a1-2)[Gal(a1-3)]Gal(b1-3)GlcNAc(b1-3)GalNAc
Summary of the method: as §1

[24] = target: Fuc(a1-2)[Gal(a1-3)]Gal(b1-3)GlcNAc(b1-6)GalNAc
Summary of the method: as §1

[25] = target: Fuc(a1-2)[Gal(a1-3)]Gal(b1-4)Glc
Summary of the method: as §1

[26] = target: Fuc(a1-2)[Gal(a1-3)]Gal(b1-4)GlcNAc
Summary of the method: as §1

[27] = target: Fuc(a1-2)[Gal(a1-3)]Gal(b1-4)GlcNAc(b1-2)Man
Summary of the method: as §1

[28] = target: Fuc(a1-2)[Gal(a1-3)]Gal(b1-4)GlcNAc(b1-2)Man(a1-3)[Fuc(a1-2)[Gal(a1-3)]Gal(b1-4)GlcNAc(b1-2)Man(a1-6)]Man(b1-4)GlcNAc(b1-4)GlcNAc
Summary of the method: as §1

B1: Blon2355mut (Bifidobacterium longum) (protein)
chain: MVQEPTLEWHVIPEPTNVEPLVGTCSLPLSGTVVEQRGADDAEAVFARQLVDDIKRVCGGRWQVASGEVQREVTLRTSPSLDDWSYVLEVSPDGVVITGSGFEGVRDGVQTLRQIIRQIGLTIPCMVIRDRPAFSTRGYYLDVTRGRVPSMAWLKSWVDRLCFYKYNQFQLYIEHTFQFNGLSEVWRGADPLTSSDILELDSYCAARGIELVPSVSTFGHHYTALRTRQLRDLGEFPEDADRPFSLIERMTHHTLNITDERSYEFSTSLIDELMPLFRSRKFNICANETFDLGKGRSKQESAKRGVGAMYADFVERLCRHVDDRGHDVMVWADVALEHPEIIDTLPKNITWLNWQYEPNVDDGTTAALADAGATQMVCPAVWCWNALIPRIDDAWNNITRMARHGRAHDVSGMLVTDWGDFGHVNDPRMSVPGMIFGAQQSWNPDAELSEVDMLSRISTIEYGDHTGSVVGALRGASAKGGFSWSDLVTYLELDDGRGGCNTEIVRVMGCLEAYRNDLPQSGQARLADARVSMLRTLRDSILAGRELNGKLDDAAKDITQLLRVAGDPSSAAVWSLAIDGQRLLNRVGLALLAAHGVVRQDEAGIDAAKLADELECWTEQYSRLWHEVSRQSELARIQHVVWRAADVLRSI
For B1, the “glycan array binding signal (z-score)” value [1] was -0.644, the “glycan array binding signal (z-score)” value [2] was -0.852 and the “glycan array binding signal (z-score)” value [3] was -0.88. For the same binder, the “glycan array binding signal (z-score)” value [4] was -0.912, the “glycan array binding signal (z-score)” value [5] was 1.67 and the “glycan array binding signal (z-score)” value [6] was -0.384. The “glycan array binding signal (z-score)” value [7] was -0.777, the “glycan array binding signal (z-score)” value [8] was 0.063 and the “glycan array binding signal (z-score)” value [9] was -0.46. The “glycan array binding signal (z-score)” value [10] was -0.858, the “glycan array binding signal (z-score)” value [11] was -0.095 and the “glycan array binding signal (z-score)” value [12] was -1.09. The “glycan array binding signal (z-score)” value [13] was -0.434, the “glycan array binding signal (z-score)” value [14] was -0.915 and the “glycan array binding signal (z-score)” value [15] was 0.153. For the same binder, the “glycan array binding signal (z-score)” value [16] was 0.631, the “glycan array binding signal (z-score)” value (Fuc(a1-2)Gal6S(b1-4)Glc) was -0.955 and the “glycan array binding signal (z-score)” value [17] was -0.239. The “glycan array binding signal (z-score)” value (Fuc(a1-2)[Gal(a1-3)]Gal) was 0.418, the “glycan array binding signal (z-score)” value [18] was 1.01 and the “glycan array binding signal (z-score)” value [19] was -0.123. For the same binder, the “glycan array binding signal (z-score)” value [20] was 0.442, the “glycan array binding signal (z-score)” value [21] was -0.711 and the “glycan array binding signal (z-score)” value [22] was 0.741. The “glycan array binding signal (z-score)” value [23] was -0.235, the “glycan array binding signal (z-score)” value [24] was -1.31 and the “glycan array binding signal (z-score)” value [25] was -0.428. The “glycan array binding signal (z-score)” value [26] was -1.23, the “glycan array binding signal (z-score)” value [27] was -0.37 and the “glycan array binding signal (z-score)” value [28] was -0.395.
